Test results reported in PubChem BioAssay AID1347075 (National Center for Advancing Translational Sciences (NCATS), 2019).
In all, about 400,000 compounds went through this assay and about 5,500 (1.4%) were called active. Inconclusive means that the source gave no clear call. Such entries were picked first, then a sample of the others. Calls come from the whole dose curve; as a rule, active = well fitted cell-killing curve with a large enough effect; inconclusive = small, poorly fitted or top-dose-only effect, or effect the other way; inactive = flat fitted curve, though single readings scatter. Where the call is inconclusive, the potency comes from a doubtful curve fit.

test: qHTS assay for MDR1-selective chemotherapeutics: Primary screen using the parental adenocarcinoma cell KB-3-1; conditions: KB-3-1 viability, CellTiter-Glo ATP luminescence, 72 h; activity change, negative = cytotoxic: at 46.1 µM (top of the series); note: nearly all actives have a fitted effect of over 60% in size
Summary of the method: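 Parental KB-3-1 adenocarcinoma cells in phenol-red-free DMEM with 10% FBS were pin-treated with compounds at several concentrations, incubated 72 h at 37 °C, and viability read by CellTiter-Glo luminescence; concentration-effect curves were fitted after normalization.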
% is set by controls: 0 for no effect and ±100 for the full control effect; potency is the fitted concentration of half-maximal effect.

| Structure (SMILES) | Potency | activity change, negative = cytotoxic |
| --- | --- | --- |
| CC1CCc2sc(C(=O)OCC(=O)NCc3ccc(F)cc3)cc2C1 (configuration not stated) | inconclusive: 29.1 µM [cytotoxic, single point] |  |
| Fc1ccc(Nc2nc(N/N=C/c3ccco3)nc(N3CCCCC3)n2)cc1 | inconclusive: 23.1 µM [cytotoxic, partial curve, poor fit] |  |
| CCSc1ccccc1C(=O)Nc1cc(OC)c(OC)c(OC)c1 |  | inactive: 1.8% |
| Cc1cc(C(=O)CN2c3cccc4cccc(c34)S2(=O)=O)c(C)n1C | inconclusive: 2.91 µM [cytotoxic, full curve, poor fit] |  |
| O=C(CSc1nnc(CNC(=O)c2cccc(C(F)(F)F)c2)o1)NC1CCCC1 |  | inactive: 21% |
| Cc1ccc(C)c(N2CCN(S(=O)(=O)CC34CCC(CC3=O)C4(C)C)CC2)c1 (configuration not stated) |  | inactive: -4.75% |
| COc1cc2c3nnc(-c4ccccc4)c-3cn(Cc3ccccc3F)c2cc1OC | inconclusive: 16.4 µM [cytotoxic, single point] |  |
| Cc1noc(C)c1CSCC(=O)N1CCN(c2ccc([N+](=O)[O-])cc2)CC1 | inconclusive: 14.6 µM [cytotoxic, partial curve, poor fit] |  |
| C=CCn1c(SCC(=O)Nc2sccc2C#N)nc2sc(C)c(C)c2c1=O | inconclusive: 1.41 µM [rising, partial curve, poor fit] |  |
| Cc1nc2ncccn2c1-c1csc(Nc2ccc(N(C)C)cc2)n1 | active: 0.0116 µM |  |
| CCCCNc1ncnc2c1cnn2-c1ccccc1 | active: 6.51 µM |  |
| COc1ccc(N2CCN(C(=O)c3ccc(C(C)(C)C)cc3)CC2)cc1 | inconclusive: 16.4 µM [cytotoxic, single point] |  |
| COc1cc(OC)cc(-c2c(-c3ccc(F)cc3)c3cc(-c4cccc5[nH]ccc45)ccc3n2C)c1 | inconclusive: 8.2 µM [cytotoxic, partial curve, poor fit] |  |
| CN(C)C(=O)CSc1nc2cc(S(=O)(=O)N3CCOCC3)ccc2o1 | inconclusive: 20.6 µM [rising, partial curve] |  |
| O=C(Cc1nn[nH]n1)c1ccccc1O | inconclusive: 9.2 µM [rising, partial curve, poor fit] |  |
| O=C(N/N=C\c1ccc([N+](=O)[O-])o1)c1cncc(Br)c1 | inconclusive: 18.4 µM [cytotoxic, single point] |  |
| Cc1ccccc1-n1c(=O)c(C#N)cc2c(=O)n3ccccc3nc21 |  | inactive: -0.557% |
| COc1ccc(-c2cn[nH]c2-c2ccc(OCc3ccc([N+](=O)[O-])cc3)cc2O)cc1 | inconclusive: 29.1 µM [cytotoxic, single point] |  |
| Nc1nc(CCl)nc(Nc2ccccc2)n1 | inconclusive: 23.1 µM [cytotoxic, single point] |  |
| CCCC[C@@H]1CN=C(N)N1CCc1cccc(F)c1 | inconclusive: 23.1 µM [cytotoxic, single point] |  |
| COc1ccc(Cl)cc1NC(=O)Cn1ncc2c3ccccc3n(Cc3ccccc3)c2c1=O |  | inactive: -3.6% |
| C=CCN(C(=O)C1CC(=O)N(C2CCCC2)C1)c1nc(-c2ccc(S(C)(=O)=O)cc2)cs1 (configuration not stated) | active: 18.4 µM |  |
| CCN1/C(=C\C(=S)Nc2ccccc2)Sc2ccccc21 | inconclusive: 16.4 µM [cytotoxic, partial curve, poor fit] |  |
| CCOC(=O)C1CCCN(C(=O)c2sc3nc(-c4ccc(F)cc4)cn3c2C)C1 (configuration not stated) |  | inactive: -14.7% |

| Structure (SMILES) | Potency | activity change, negative = cytotoxic |
| --- | --- | --- |
| O=C(NC(c1ccc(F)cc1)c1ccc2ccccc2n1)C1CCN(Cc2cccc(C(F)(F)F)c2)CC1 (configuration not stated) | inconclusive: 29.1 µM [cytotoxic, single point] |  |
| c1ccc(C2=Nn3c(nnc3-c3n[nH]c4c3CCC4)SC2)cc1 |  | inactive: 9.32% |
| COc1ccc(C=C2CCC3C(CCCC34OCCO4)C2=O)cc1 (configuration not stated) | inconclusive: 20.6 µM [cytotoxic, single point] |  |
| CC(=NNC(=S)N1CC2CCC(CC2)C1)c1ccncn1 |  | inconclusive: 0% |
| COc1cc(OC)cc(N2CC(C)(C)C2=O)c1 |  | inactive: -1.51% |
| CCC1=NN(C(=O)c2cccc(Br)c2)C(O)(c2ccc(Br)cc2)C1 (configuration not stated) | inconclusive: 23.1 µM [cytotoxic, single point] |  |
| O=C(NCc1ccc(F)cc1)C1CCN(S(=O)(=O)c2ccc3c(c2)CCCN3C(=O)C2CCC2)CC1 | inconclusive: 29.1 µM [cytotoxic, single point] |  |
| CC(C)C[C@@H](COCc1ccc(Cl)cc1)N1CCN(C(=O)c2ccc(Cl)cc2Cl)CCC1=O | inconclusive: 29.1 µM [cytotoxic, single point] |  |
| CC(=O)Nc1ccc2c(c1)Cc1ccc(Cl)cc1-2 |  | inconclusive: -4.75% |
| CC(/C=C1\SC(=Nc2cccnc2)NC1=O)=C\c1ccccc1 | active: 16.4 µM |  |
| C/C(=N\NC(=S)NC1CCCCC1)c1ccccc1 | active: 16.4 µM |  |
| O=C1CCC/C1=C\c1ccccc1 |  | inactive: -0.362% |
| CCN(CC)C(=O)[C@H]1C[C@H](CC(=O)NCCCOC)C(=O)N2CCc3c([nH]c4cc(-c5ccco5)ccc34)[C@]12C |  | inactive: 0% |
| O=C1C=C(N2CCOCC2)c2ccccc2C1=O |  | inconclusive: -84% |
| O=C(NCc1ccc(F)cc1)c1cnc(N2CCOCC2)c2ccccc12 |  | inactive: -3.47% |
| CC(Oc1ccc(Cl)cc1Cl)C(=O)NC1=NN(c2ccccc2)C(=O)C1 (configuration not stated) |  | inactive: 11.5% |
| COc1ccc(CN(CC(=O)NCC2CCCO2)C(=O)CNS(=O)(=O)c2ccccc2)cc1 (configuration not stated) |  | inactive: 4.2% |
| Cc1ccc(C(=O)NNC2=Nc3cccc4cccc2c34)cc1 | inconclusive: 13 µM [cytotoxic, partial curve, poor fit] |  |
| O=C(CSc1ccc(-c2ccccn2)nn1)c1ccccc1 | inconclusive: 29.1 µM [cytotoxic, single point] |  |
| CCOc1cccc(/C=C/c2ccc3cccc(O)c3n2)c1O | inconclusive: 25.9 µM [cytotoxic, partial curve, poor fit] |  |
| C/C(=N\O)C(C)(C)Nc1ccccc1F |  | inactive: -0.298% |
| Cc1cccc(Cn2c(=O)n(CCCCC(=O)NCc3ccc4c(c3)OCO4)c(=O)c3ccccc32)c1 |  | inactive: 11.5% |
| COc1ccc(OC)c(-c2cnc(OC(C)(C)C)nc2OC(C)(C)C)c1 | inconclusive: 29.1 µM [cytotoxic, single point] |  |
| Cc1cc(C)c(NC(=O)C(C)Sc2nc3ccc(N4C(=O)c5ccccc5C4=O)cc3s2)c(C)c1 (configuration not stated) |  | inactive: 0.907% |

16 entries from above, with tabs:
Structure (SMILES)	Potency	activity change, negative = cytotoxic
CC1CCc2sc(C(=O)OCC(=O)NCc3ccc(F)cc3)cc2C1 (configuration not stated)	inconclusive: 29.1 µM [cytotoxic, single point]	
CCSc1ccccc1C(=O)Nc1cc(OC)c(OC)c(OC)c1		inactive: 1.8%
Cc1ccc(C)c(N2CCN(S(=O)(=O)CC34CCC(CC3=O)C4(C)C)CC2)c1 (configuration not stated)		inactive: -4.75%
COc1cc2c3nnc(-c4ccccc4)c-3cn(Cc3ccccc3F)c2cc1OC	inconclusive: 16.4 µM [cytotoxic, single point]	
CCCCNc1ncnc2c1cnn2-c1ccccc1	active: 6.51 µM	
COc1ccc(N2CCN(C(=O)c3ccc(C(C)(C)C)cc3)CC2)cc1	inconclusive: 16.4 µM [cytotoxic, single point]	
COc1cc(OC)cc(-c2c(-c3ccc(F)cc3)c3cc(-c4cccc5[nH]ccc45)ccc3n2C)c1	inconclusive: 8.2 µM [cytotoxic, partial curve, poor fit]	
O=C(Cc1nn[nH]n1)c1ccccc1O	inconclusive: 9.2 µM [rising, partial curve, poor fit]	
Nc1nc(CCl)nc(Nc2ccccc2)n1	inconclusive: 23.1 µM [cytotoxic, single point]	
CCOC(=O)C1CCCN(C(=O)c2sc3nc(-c4ccc(F)cc4)cn3c2C)C1 (configuration not stated)		inactive: -14.7%
CCC1=NN(C(=O)c2cccc(Br)c2)C(O)(c2ccc(Br)cc2)C1 (configuration not stated)	inconclusive: 23.1 µM [cytotoxic, single point]	
O=C1CCC/C1=C\c1ccccc1		inactive: -0.362%
COc1ccc(CN(CC(=O)NCC2CCCO2)C(=O)CNS(=O)(=O)c2ccccc2)cc1 (configuration not stated)		inactive: 4.2%
Cc1ccc(C(=O)NNC2=Nc3cccc4cccc2c34)cc1	inconclusive: 13 µM [cytotoxic, partial curve, poor fit]	
O=C(CSc1ccc(-c2ccccn2)nn1)c1ccccc1	inconclusive: 29.1 µM [cytotoxic, single point]	
CCOc1cccc(/C=C/c2ccc3cccc(O)c3n2)c1O	inconclusive: 25.9 µM [cytotoxic, partial curve, poor fit]	

(further entries)

| Structure (SMILES) | Potency | activity change, negative = cytotoxic |
| --- | --- | --- |
| COc1cc(OC)c(C2SCCCS2)cc1OC |  | inactive: 2.96% |
| CC1CCCCC1NC(=O)CN1C(=O)NC(C)(c2cccc(Br)c2)C1=O (configuration not stated) |  | inconclusive: -11.1% |
| O=C(CN1CCN(Cc2ccccc2)CC1)Nc1cccc(S(=O)(=O)N2CCCCCC2)c1 |  | inactive: -25% |
| Cn1c(N/N=C/c2cccs2)nc2c1c(=O)n(Cc1ccccc1)c(=O)n2C | inconclusive: 25.9 µM [rising, single point] |  |
| Cc1n[nH]c(=S)n1/N=C/c1ccccc1OCc1ccc(Cl)cc1 | inconclusive: 23.1 µM [cytotoxic, partial curve, poor fit] |  |
| Cc1ccc(NC(=O)/C(C#N)=C/c2ccccc2Cl)cc1C | inconclusive: 32.6 µM [cytotoxic, partial curve, poor fit] |  |
| COc1cccc(NC(=O)Nc2ccccc2Br)c1 |  | inactive: 9.31% |
| Cc1cccc(-c2nnc(NC(=O)c3ccc(Cl)cc3)o2)c1 | inconclusive: 18.4 µM [cytotoxic, single point] |  |
| C=CC[n+]1c(-c2ccc(C)cc2)csc1Nc1ccc(NC(C)=O)cc1 | inconclusive: 16.4 µM [cytotoxic, single point] |  |
| Cc1ccc(S(=O)(=O)N2CCN(c3ccc(C(=O)N4CCOCC4)cc3[N+](=O)[O-])CC2)cc1 |  | inactive: 2.35% |
| CCN(C(=O)c1sc2cc(OC)ccc2c1Cl)c1ccccc1 | active: 20.6 µM |  |
| O=C(N/N=C/C=C/c1ccccc1)c1n[nH]c2c1CCC2 | active: 1.3 µM |  |
| Cc1cc(C)cc(NC(=O)c2cc(C)nc3c2c(C)nn3-c2ccccc2)c1 | inconclusive: 20.6 µM [cytotoxic, single point] |  |
| O=C1NC2(C=Cc3c(ccc4ccccc34)O2)Oc2ccccc21 (configuration not stated) | inconclusive: 29.1 µM [cytotoxic, single point] |  |
| CCn1c2ccccc2c2cc(NC(=O)c3cc(OC)cc(OC)c3)ccc21 | inconclusive: 0.651 µM [cytotoxic, full curve, poor fit] |  |
| COc1ccc(OC)c(C(=O)c2c(C)oc3cc(Br)c(O)c(CN(C)C)c23)c1 | inconclusive: 11.6 µM [cytotoxic, partial curve] |  |
| C=CC[C@H](CC(=O)N(CCO)Cc1ccccc1)C(=O)N[C@H](COC(=O)[C@@H](CC=C)Cc1ccc(F)cc1)Cc1c[nH]c2ccccc12 | inconclusive: 20.6 µM [cytotoxic, single point] |  |
| CN1CCN(C(=S)NC(=O)/C=C/c2cccs2)CC1 |  | inactive: 12% |
| Cc1[nH]c2c(C)cccc2c1CCNC(=O)c1ccc2c(c1[N+](=O)[O-])C(=O)c1ccccc1C2=O | inconclusive: 29.1 µM [cytotoxic, single point] |  |
| Cn1c(=O)c(C(=O)NNC(=O)c2ccccc2F)c(O)c2ccccc21 | inconclusive: 29.1 µM [cytotoxic, single point] |  |
| Cc1occc1C(=O)N/N=C/c1ccc(-c2ccccc2)cc1 | active: 20.6 µM |  |
| Cc1cc(C(=O)N/N=C/c2cc([N+](=O)[O-])cc(C)c2O)n[nH]1 | inconclusive: 25.9 µM [cytotoxic, single point] |  |
| CCOc1ccccc1NC(=O)Cn1c(=O)n(Cc2nc(C)no2)c(=O)c2ccccc21 |  | inactive: 15.4% |
| COc1ccc(NC(=O)Nc2ccc3c(c2)N(C)C(=O)CS3)cc1Cl | inconclusive: 29.1 µM [cytotoxic, single point] |  |
